## Library compounds against nucleic acid targets

From ROBIN, a set of small-molecule microarray screens (doi:10.1002/anie.202211358).

Oligonucleotides screened, 5′ to 3′:
TPP: TPP riboswitch RNA three-way junction, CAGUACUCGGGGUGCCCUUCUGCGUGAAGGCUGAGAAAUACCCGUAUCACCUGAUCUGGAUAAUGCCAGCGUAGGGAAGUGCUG. Hit rate about 0.7% of about 24,000 compounds.
SAM-II: SAM-II riboswitch RNA pseudoknot, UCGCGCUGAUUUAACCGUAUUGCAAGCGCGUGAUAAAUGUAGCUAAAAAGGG. Hit rate about 1% of about 21,000 compounds.
PreQ1: PreQ1 riboswitch RNA pseudoknot, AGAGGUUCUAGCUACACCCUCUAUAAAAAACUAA. From B. subtilis. Hit rate about 0.7% of about 24,000 compounds.

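The test is a small-molecule microarray: each compound is printed twice on a reactive slide, and binding shows as fluorescence of the labelled oligonucleotide after washing. For the PreQ1, TPP and SAM-II riboswitches the laboratory earlier reported (doi:10.1038/s41467-019-09493-3) 1 µM RNA, 2 h, and a rule that included a mean Z-score above 3 (spot signal-to-noise against the whole library), a score well above that on a control array, and duplicate spots agreeing (coefficient of variation under 100). The data file gives only the calls; its cut-offs may differ, and compounds hitting several targets are kept. A missing hit is not proof of no binding, and a hit is not a measured affinity.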 A compound is marked hit if it was called a hit and no hit if it was screened but was not. This is an unselected part of the compounds tested. A target missing from an entry has no call listed here.

- [NH3+]c1cccc(OCCO)c1 : TPP: no hit; SAM-II: no hit; PreQ1: no hit
- Cc1ccc(Nc2nnc(-c3ccncc3)s2)c(Br)c1 : TPP: no hit; SAM-II: no hit; PreQ1: no hit
- N#Cc1c2c(c(NCCOCCO)n3c1nc1ccccc13)CCCC2 : TPP: no hit; SAM-II: no hit; PreQ1: no hit
- C=C1CC2(OC1=O)c1ccccc1CCc1ccccc12 : TPP: no hit; SAM-II: no hit; PreQ1: no hit
- Cc1ncn(CC(=O)N2CC[C@H](N3CCN(C)CC3)[C@H](CCCO)C2)c1C : TPP: no hit; SAM-II: no hit; PreQ1: no hit
- Nc1c(C(=O)O)cnn1-c1ccc(F)cc1 : TPP: no hit; SAM-II: no hit; PreQ1: no hit
- OCCn1nc(C2CCCC2)nc1-c1cnn(Cc2ccccc2)c1 : TPP: no hit; SAM-II: no hit; PreQ1: no hit
- O=C(c1cnco1)N1CC[C@@H](c2ccc3ccccc3c2)[C@H](O)C1 : TPP: no hit; SAM-II: no hit; PreQ1: no hit
- COc1cc(C2c3c(-c4ccccc4O)n[nH]c3C(=O)N2CCCO)ccc1O (stereo unspecified) : TPP: no hit; PreQ1: no hit
- CC(Cc1cnccn1)NC1CCN(c2ncnc3[nH]cnc23)CC1 (stereo unspecified) : TPP: no hit; SAM-II: no hit; PreQ1: no hit
- COc1cc(OC)c(C(=O)CCCN2CCCC2)c(OC)c1 : TPP: no hit; SAM-II: no hit; PreQ1: no hit
- CC(C)Cn1cncc1CNC(=O)c1cn([C@H]2CC[C@@H](N)CC2)nn1 : TPP: no hit; SAM-II: no hit; PreQ1: no hit
- N=C(N)c1ccc2cc(OC(=O)c3ccc(N=C(N)N)cc3)ccc2c1 : TPP: no hit; SAM-II: no hit; PreQ1: no hit
- C=CCNc1oc(-c2ccc(Cl)cc2)nc1S(=O)(=O)c1ccc(F)cc1 : TPP: no hit; PreQ1: no hit
- Fc1ccccc1CNCCc1c[nH]c2ccccc12 : TPP: no hit; SAM-II: no hit; PreQ1: no hit
- Cc1ccc(N2CCN(CC(O)COc3cccc(-c4nnco4)c3)CC2)cc1Cl (stereo unspecified) : TPP: no hit; SAM-II: no hit; PreQ1: no hit
- CCOC(=O)N1CCN(C(=O)C2CCC(CNc3c(N4CCCCC4)c(=O)c3=O)CC2)CC1 (stereo unspecified) : TPP: no hit; PreQ1: no hit
- Cc1cc2c(cc1C)CN(c1cccc(C(=O)NC[C@@H]3C[C@H](F)CN3)c1)C2 : TPP: no hit; SAM-II: no hit; PreQ1: no hit
- CCCCS(=O)(=O)N1CCN(c2cc(C)nc(NCC)n2)CC1 : TPP: no hit; PreQ1: no hit
- OC1(c2cccc(C(F)(F)F)c2)CCN(CC2CCCNC2)CC1 (stereo unspecified) : TPP: no hit; SAM-II: no hit; PreQ1: no hit
- CCN(CC)CCOc1ccc(Nc2ncc3cc(-c4c(Cl)cccc4Cl)c(=O)n(C)c3n2)cc1 : TPP: no hit; SAM-II: no hit; PreQ1: no hit
- CCOC(=O)c1sc2nc(C)nc(Nc3cccc(Cl)c3)c2c1C : TPP: no hit; SAM-II: no hit; PreQ1: no hit
- Cc1nn(C)c2nc(-c3ccccn3)nc(NCCc3csc(N)n3)c12 : TPP: no hit; SAM-II: no hit; PreQ1: no hit
- C=CCN1C(=O)C(O)(CC(=O)c2cccc(N)c2)c2ccccc21 (stereo unspecified) : TPP: no hit; SAM-II: no hit; PreQ1: no hit
- COc1ccc2c(=O)n(CC(=O)N3CCCNCC3)ccc2c1OC : TPP: no hit; SAM-II: no hit; PreQ1: no hit
- N#Cc1cnn2c(NC3CCCCC3)c(-c3ccc(Br)cc3)[nH]c12 : TPP: no hit; PreQ1: no hit

The first 3 entries again:

compound	TPP	SAM-II	PreQ1
[NH3+]c1cccc(OCCO)c1	no hit	no hit	no hit
Cc1ccc(Nc2nnc(-c3ccncc3)s2)c(Br)c1	no hit	no hit	no hit
N#Cc1c2c(c(NCCOCCO)n3c1nc1ccccc13)CCCC2	no hit	no hit	no hit